Assay [1] addresses T1, Bacillus subtilis frataxin homologue Fra, recombinant His6-tagged (Bacillus subtilis 168) (UniProt Q797E6).
T1 sequence: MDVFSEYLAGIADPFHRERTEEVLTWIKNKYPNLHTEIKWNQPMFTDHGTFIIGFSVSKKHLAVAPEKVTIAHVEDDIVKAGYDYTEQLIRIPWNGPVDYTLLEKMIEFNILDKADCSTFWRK
The assay can be described thus: pull-down; 2.5 nmol His6-tagged Fra in HEPES buffer A (50 mM HEPES, 300 mM NaCl, pH 8.0) immobilised on a Ni2+-NTA spin column, treated with 50 μL of 100 μM Strep II-tagged HemH (or BSA as control); elution fractions on SDS-PAGE; both purified.

The chains behind the UniProt entries cited, without tags or fusion partners. Residues count along the entry.
UniProt P02769, residues 25-607: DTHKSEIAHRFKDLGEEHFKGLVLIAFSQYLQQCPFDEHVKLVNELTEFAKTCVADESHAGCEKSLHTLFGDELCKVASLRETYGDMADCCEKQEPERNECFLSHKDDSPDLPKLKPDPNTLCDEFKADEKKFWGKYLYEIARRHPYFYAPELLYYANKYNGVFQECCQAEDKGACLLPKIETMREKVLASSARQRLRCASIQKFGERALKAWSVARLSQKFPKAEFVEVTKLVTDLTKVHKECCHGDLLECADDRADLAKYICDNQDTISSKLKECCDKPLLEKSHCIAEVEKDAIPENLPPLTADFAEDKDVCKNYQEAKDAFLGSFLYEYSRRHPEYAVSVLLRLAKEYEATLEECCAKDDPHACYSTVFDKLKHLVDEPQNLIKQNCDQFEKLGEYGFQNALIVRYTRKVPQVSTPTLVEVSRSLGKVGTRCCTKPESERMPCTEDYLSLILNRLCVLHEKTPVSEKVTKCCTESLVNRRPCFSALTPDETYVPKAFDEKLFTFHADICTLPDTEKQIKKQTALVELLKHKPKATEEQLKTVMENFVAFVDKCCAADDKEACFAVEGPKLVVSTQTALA

The target of assay [2] is Bacillus subtilis nitric oxide synthase bsNos, recombinant His6-tagged (Bacillus subtilis 168) (UniProt O34453). The assay can be described thus: condition: only apo-form (without the heme b co-factor); SEC; separation of the apo- and holo-forms of bsNos by size-exclusion chromatography after affinity purification from the crude protein extract; both purified. (In general: SEC sorts molecules by how far they enter the pores of the column.)

The target in assay [3] is T1, Bacillus subtilis frataxin homologue Fra, recombinant His6-tagged (Bacillus subtilis 168). The assay can be described thus: condition: only with apo-Fra (not iron-charged); HemH titrated from 42.6 μM to 0.01 μM; MST; as the holo-Fra experiment but with labelled apo-Fra (not iron-charged); HemH titrated; 25°C; both purified.

These are yes or no findings as the source states them, for the method shown. Sequences can lack the tags named with a protein.

In the case of “bovine serum albumin (from UniProt P02769 25-607)”, the binding result in assay [1] is reported as “no binding”.

B1: Bacillus subtilis nitric oxide synthase bsNos, recombinant His6-tagged (enzyme, Bacillus subtilis 168, UniProt O34453 1-363, looked up)
chain: MEEKEILWNEAKAFIAACYQELGKEEEVKDRLADIKSEIDLTGSYVHTKEELEHGAKMAWRNSNRCIGRLFWNSLNVIDRRDVRTKEEVRDALFHHIETATNNGKIRPTITIFPPEEKGEKQVEIWNHQLIRYAGYESDGERIGDPASCSLTAACEELGWRGERTDFDLLPLIFRMKGDEQPVWYELPRSLVIEVPITHPDIEAFSDLELKWYGVPIISDMKLEVGGIHYNAAPFNGWYMGTEIGARNLADEKRYDKLKKVASVIGIAADYNTDLWKDQALVELNKAVLHSYKKQGVSIVDHHTAASQFKRFEEQEEEAGRKLTGDWTWLIPPISPAATHIFHRSYDNSIVKPNYFYQDKPYE
notes: nitric oxide synthase bsNos of Bacillus subtilis 168, gene amplified from genomic DNA; The holo-form (with heme b) is called dimeric and the apo-form monomeric; The two were separated by size-exclusion chromatography; also called Nos-His6; holo-bsNos; not shown: His6, N-terminal, kept
Take B1: the binding entry in assay [2] was “no binding”.

B2: Bacillus subtilis ferrochelatase HemH, recombinant Strep-tag II variant (enzyme, UniProt P32396 1-310)
chain: MSRKKMGLLVMAYGTPYKEEDIERYYTHIRRGRKPEPEMLQDLKDRYEAIGGISPLAQITEQQAHNLEQHLNEIQDEITFKAYIGLKHIEPFIEDAVAEMHKDGITEAVSIVLAPHFSTFSVQSYNKRAKEEAEKLGGLTITSVESWYDEPKFVTYWVDRVKETYASMPEDERENAMLIVSAHSLPEKIKEFGDPYPDQLHESAKLIAEGAGVSEYAVGWQSEGNTPDPWLGPDVQDLTRDLFEQKGYQAFVYVPVGFVADHLEVLYDNDYECKVVTDDIGASYYRPEMPNAKPEFIDALATVVLKKLGR
Turning to B2, the binding entry in assay [3] was “no binding”.

The values above are taken from article PMC4380498, “Molecular Insights into Frataxin-Mediated Iron Supply for Heme Biosynthesis in Bacillus subtilis” (PLoS ONE, 2015).
